According to publication PMC10992428:
Construct, isoform or probe ends are uncertain for at least one entry. For some assays here: Negatives hold for the conditions tested. Tags and fusion partners may be left off the protein sequences shown.

Each sequence was assayed against T1, CcpA (Bacillus licheniformis) (UniProt Q65G28) (assay: EMSA). Settings: 1.2, 1.6 uM CcpA; 10 nM biotin probe, 10 mM Tris-HCl pH 7.4, 1 mM DTT, 1 mM EDTA, 50 mM KCl, 1 mM MgCl2, 0.05 ug/uL poly(dI-dC), 25 C, 20 min; 4% acrylamide, 0.5x TBE; recombinant protein; protein details: His-tag; label: biotin.
T1 sequence (looked up, limits assumed): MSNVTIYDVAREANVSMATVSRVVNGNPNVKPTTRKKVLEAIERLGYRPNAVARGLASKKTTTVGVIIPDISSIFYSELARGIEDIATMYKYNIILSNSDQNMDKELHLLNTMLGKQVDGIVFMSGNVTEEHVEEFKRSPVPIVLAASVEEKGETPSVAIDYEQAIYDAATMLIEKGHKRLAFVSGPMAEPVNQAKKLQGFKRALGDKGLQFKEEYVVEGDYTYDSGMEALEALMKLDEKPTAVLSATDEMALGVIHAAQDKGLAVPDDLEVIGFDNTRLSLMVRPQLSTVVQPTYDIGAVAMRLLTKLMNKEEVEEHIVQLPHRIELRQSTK

Row | Sequence | binding result
1 | TCCCCGTCAGATGGCCGGGAGCCGGATGAACCACCATTCCGCGCGGCTTGTTGACGACAAGAACGTCCTGATCTTATTATAATATAAGCAAAAAACTCTTGTCATCCTGCCAAATAAAAAGGAAAAGCATTGACCTGAAAAAAGCTATAGCTTTTATAATACAAAAAGACCGATTAGAGGGGAGAGAGGAAACATGCCTTCAGTTGAAAGTTTTGAACTTGACCATAATGCAGTAAAAGCGCCTTACGTCAGACACTGCGGCGTCCATAAAGTGGGATCCCTCGAGCGG (double strand) [A-4e (MtlR box 4, cre3)] | binds
2 | TCCCCGTCAGATGGCCGGGAGCCGGATGAACCACCATTCCGCGCGGCTTGTTGACGACAAGAACGTCCTGATCTTATTATAATATAAGCAAAAAACTCTTGTCATCCTGCCAAATAAAAAGGAAAAGCATTGACCTGAAAAGCTTTATAAAGCTTATAATACAAAAAGACCGATTAGAGGGGAGAGAGGAAACATGCCTTCAGTTGAAAGTTTTGAACTTGACCATAATGCAGTAAAAGCGCCTTACGTCAGACACTGCGGCGTCCATAAAGTGGGATCCCTCGAGCGG (double strand) [A-4c (MtlR box 4, cre2)] | binds
3 | TCCCCGTCAGATGGCCGGGAGCCGGATGAACCACCATTCCGCGCGGCTTGTTGACGACAAGAACGTCCTGATCTTATTATAATATAAGCAAAAAACTCTTGTCATCCTGCCAAATAAAAAGGAAAAGCATTGACCTGAAATGACAGCGCTGTCATATAATACAAAAAGACCGATTAGAGGGGAGAGAGGAAACATGCCTTCAGTTGAAAGTTTTGAACTTGACCATAATGCAGTAAAAGCGCCTTACGTCAGACACTGCGGCGTCCATAAAGTGGGATCCCTCGAGCGG (double strand) [A-4a (MtlR box 4, cre1)] | binds
4 | TCCCCGTCAGATGGCCGGGAGCCGGATGAACCACCATTCCGCGCGGCTTGTTGACGACAAGAACGTCCTGATCTTATTATAATATAAGCAAAAAACTCTTGTCATCCTGCCAAATAAAAAGGAAAGCTATAGCTTTAAAAGCATTGACCTGAAAACTTATCGGTAAAGTATGATATAATACAAAAAGACCGATTAGAGGGGAGAGAGGAAACATGCCTTCAGTTGAAAGTTTTGAACTTGACCATAATGCAGTAAAAGCGCCTTACGTCAGACACTGCGGCGTCCATAAAGTGGGATCCCTCGAGCGG (double strand) [A-4f (MtlR box 4, cre3)] | binds
5 | TCCCCGTCAGATGGCCGGGAGCCGGATGAACCACCATTCCGCGCGGCTTGTTGACGACAAGAACGTCCTGATCTTATTATAATATAAGCAAAAAACTCTTGTCATCCTGCCAAATAAAAAGGAGCTTTATAAAGCTAAAAGCATTGACCTGAAAACTTATCGGTAAAGTATGATATAATACAAAAAGACCGATTAGAGGGGAGAGAGGAAACATGCCTTCAGTTGAAAGTTTTGAACTTGACCATAATGCAGTAAAAGCGCCTTACGTCAGACACTGCGGCGTCCATAAAGTGGGATCCCTCGAGCGG (double strand) [A-4d (MtlR box 4, cre2)] | binds
6 | TCCCCGTCAGATGGCCGGGAGCCGGATGAACCACCATTCCGCGCGGCTTGTTGACGACAAGAACGTCCTGATCTTATTATAATATAAGCAAAAAACTCTTGTCATCCTGCCAAATAAAAAGGTGACAGCGCTGTCAAAAAGCATTGACCTGAAAACTTATCGGTAAAGTATGATATAATACAAAAAGACCGATTAGAGGGGAGAGAGGAAACATGCCTTCAGTTGAAAGTTTTGAACTTGACCATAATGCAGTAAAAGCGCCTTACGTCAGACACTGCGGCGTCCATAAAGTGGGATCCCTCGAGCGG (double strand) [A-4b (MtlR box 4, cre1)] | binds

The sequences below were run against T2, MtlR (Bacillus licheniformis) (UniProt Q62YQ4) (assay: EMSA). Settings: 0.4 uM MtlR; 10 nM biotin probe, 10 mM Tris-HCl pH 7.4, 1 mM DTT, 1 mM EDTA, 50 mM KCl, 1 mM MgCl2, 0.05 ug/uL poly(dI-dC), 25 C, 20 min; 4% acrylamide, 0.5x TBE; recombinant protein; protein details: His-tag; label: biotin.
T2 sequence (looked up, limits assumed): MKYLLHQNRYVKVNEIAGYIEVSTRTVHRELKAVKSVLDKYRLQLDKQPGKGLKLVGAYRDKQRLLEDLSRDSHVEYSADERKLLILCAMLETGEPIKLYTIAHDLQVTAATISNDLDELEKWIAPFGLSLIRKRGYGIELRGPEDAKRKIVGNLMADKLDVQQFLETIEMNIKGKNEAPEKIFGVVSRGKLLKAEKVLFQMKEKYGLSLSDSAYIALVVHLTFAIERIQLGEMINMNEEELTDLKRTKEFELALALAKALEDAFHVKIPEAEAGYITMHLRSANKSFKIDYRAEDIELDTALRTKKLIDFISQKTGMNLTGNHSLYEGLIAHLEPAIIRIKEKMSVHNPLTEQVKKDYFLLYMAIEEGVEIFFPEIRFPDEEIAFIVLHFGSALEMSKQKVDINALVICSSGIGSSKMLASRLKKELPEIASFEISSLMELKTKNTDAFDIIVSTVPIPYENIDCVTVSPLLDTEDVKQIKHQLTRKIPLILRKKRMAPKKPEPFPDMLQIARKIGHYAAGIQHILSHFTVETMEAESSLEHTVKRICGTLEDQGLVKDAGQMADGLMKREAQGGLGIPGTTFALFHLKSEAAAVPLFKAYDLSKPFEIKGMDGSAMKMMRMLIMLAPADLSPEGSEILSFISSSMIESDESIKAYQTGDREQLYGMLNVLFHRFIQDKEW

Row | Sequence | binding result
7 | TCCCCGTCAGATGGCCGGGAGCCGGATGAACCACCATTCCGCGCGGCTTGTTGACGACAAGAACGTCCTGATCTTATTATAATATAAGCAAAAAACTCATAAAAAGGAAAAGCATTGACCTGAAAACTTATCGGTAAAGTATGATATAATACAAAAAGACCGATTAGAGGGGAGAGAGGAAACATGCCTTCAGTTGAAAGTTTTGAACTTGACCATAATGCAGTAAAAGCGCCTTACGTCAGACACTGCGGCGTCCATAAAGTGGGATCCCTCGAGCGG (double strand) [Pshutle09] | no binding
8 | TCCCCGTCAGATGGCCGGGAGCCGGATGAACCACCATTCCGCGCGGCTTGTTGACGACAAGAACGTCCTGATCTTATTATAATATAAGCAAAAAACTCTTGTCACACGGCTCCTGCCAAATAAAAAGGAAAAGCATTGACCTGAAAACTTATCGGTAAAGTATGATATAATACAAAAAGACCGATTAGAGGGGAGAGAGGAAACATGCCTTCAGTTGAAAGTTTTGAACTTGACCATAATGCAGTAAAAGCGCCTTACGTCAGACACTGCGGCGTCCATAAAGTGGGATCCCTCGAGCGG (double strand) [Pshutle09A (MtlR box A)] | binds
9 | TCCCCGTCAGATGGCCGGGAGCCGGATGAACCACCATTCCGCGCGGCTTGTTGACGACAAGAACGTCCTGATCTTATTATAATATAAGCAAAAAACTCTTGTCACAGTATGTGCCAAATAAAAAGGAAAAGCATTGACCTGAAAACTTATCGGTAAAGTATGATATAATACAAAAAGACCGATTAGAGGGGAGAGAGGAAACATGCCTTCAGTTGAAAGTTTTGAACTTGACCATAATGCAGTAAAAGCGCCTTACGTCAGACACTGCGGCGTCCATAAAGTGGGATCCCTCGAGCGG (double strand) [Pshutle09B (MtlR box B)] | binds

Same assay, conditions: 0.5, 1.0 uM MtlR; 10 nM biotin probe, 10 mM Tris-HCl pH 7.4, 1 mM DTT, 1 mM EDTA, 50 mM KCl, 1 mM MgCl2, 0.05 ug/uL poly(dI-dC), 25 C, 20 min; 4% acrylamide, 0.5x TBE; recombinant protein; protein details: His-tag; label: biotin

Row | Sequence | binding result
10 | TCCCCGTCAGATGGCCGGGAGCCGGATGAACCACCATTCCGCGCGGCTTGTTGACGACAAGAACGTCCTGATCTTATTATAATATAAGCAAAAAACTCCCCGGGCACGGCTCCTGCCAAATAAAAAGGAAAAGCATTGACCTGAAAACTTATCGGTAAAGTATGATATAATACAAAAAGACCGATTAGAGGGGAGAGAGGAAACATGCCTTCAGTTGAAAGTTTTGAACTTGACCATAATGCAGTAAAAGCGCCTTACGTCAGACACTGCGGCGTCCATAAAGTGGGATCCCTCGAGCGG (double strand) [A-1 (MtlR box 1)] | no binding
11 | TCCCCGTCAGATGGCCGGGAGCCGGATGAACCACCATTCCGCGCGGCTTGTTGACGACAAGAACGTCCTGATCTTATTATAATATAAGCAAAAAACTCTTGTCACACGGCTCCCCCGGGATAAAAAGGAAAAGCATTGACCTGAAAACTTATCGGTAAAGTATGATATAATACAAAAAGACCGATTAGAGGGGAGAGAGGAAACATGCCTTCAGTTGAAAGTTTTGAACTTGACCATAATGCAGTAAAAGCGCCTTACGTCAGACACTGCGGCGTCCATAAAGTGGGATCCCTCGAGCGG (double strand) [A-2 (MtlR box 2)] | no binding
12 | TCCCCGTCAGATGGCCGGGAGCCGGATGAACCACCATTCCGCGCGGCTTGTTGACGACAAGAACGTCCTGATCTTATTATAATATAAGCAAAAAACTCTTGTCACACGGCTCCTGCCAAATAAAAAGGAAAAGCATTGACCTGAAAACTTATCGGTAAAGTATGATATAATACAAAAAGACCGATTAGAGGGGAGAGAGGAAACATGCCTTCAGTTGAAAGTTTTGAACTTGACCATAATGCAGTAAAAGCGCCTTACGTCAGACACTGCGGCGTCCATAAAGTGGGATCCCTCGAGCGG (double strand) [A-6 (MtlR box 6)] | binds
13 | TCCCCGTCAGATGGCCGGGAGCCGGATGAACCACCATTCCGCGCGGCTTGTTGACGACAAGAACGTCCTGATCTTATTATAATATAAGCAAAAAACTCTTGTCAGGCTCCTGCCAAATAAAAAGGAAAAGCATTGACCTGAAAACTTATCGGTAAAGTATGATATAATACAAAAAGACCGATTAGAGGGGAGAGAGGAAACATGCCTTCAGTTGAAAGTTTTGAACTTGACCATAATGCAGTAAAAGCGCCTTACGTCAGACACTGCGGCGTCCATAAAGTGGGATCCCTCGAGCGG (double strand) [A-5 (MtlR box 5)] | binds
14 | TCCCCGTCAGATGGCCGGGAGCCGGATGAACCACCATTCCGCGCGGCTTGTTGACGACAAGAACGTCCTGATCTTATTATAATATAAGCAAAAAACTCTTGTCATGCCAAATAAAAAGGAAAAGCATTGACCTGAAAACTTATCGGTAAAGTATGATATAATACAAAAAGACCGATTAGAGGGGAGAGAGGAAACATGCCTTCAGTTGAAAGTTTTGAACTTGACCATAATGCAGTAAAAGCGCCTTACGTCAGACACTGCGGCGTCCATAAAGTGGGATCCCTCGAGCGG (double strand) [A-3 (MtlR box 3)] | binds
